Measured values reported in the supplement of paper PMC10060354, “Discovery of a small molecule ligand of FRS2 that inhibits invasion and tumor growth” (Cellular Oncology, 2022).
Many values rest on one well or one pass, so single values are uncertain.

Protein sequences, listed by entry. Tags and fused reporters are not part of them. Lines headed by an entry give the natural chain unless they say otherwise; changes in a name come on top.
UniProt Q9BRJ7: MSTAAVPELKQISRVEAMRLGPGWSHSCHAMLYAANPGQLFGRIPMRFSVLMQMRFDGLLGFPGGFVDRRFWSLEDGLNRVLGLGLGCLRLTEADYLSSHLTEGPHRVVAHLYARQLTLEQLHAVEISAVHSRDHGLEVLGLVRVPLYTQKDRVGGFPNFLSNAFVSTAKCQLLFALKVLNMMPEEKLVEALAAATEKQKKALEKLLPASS
UniProt Q9H7B4: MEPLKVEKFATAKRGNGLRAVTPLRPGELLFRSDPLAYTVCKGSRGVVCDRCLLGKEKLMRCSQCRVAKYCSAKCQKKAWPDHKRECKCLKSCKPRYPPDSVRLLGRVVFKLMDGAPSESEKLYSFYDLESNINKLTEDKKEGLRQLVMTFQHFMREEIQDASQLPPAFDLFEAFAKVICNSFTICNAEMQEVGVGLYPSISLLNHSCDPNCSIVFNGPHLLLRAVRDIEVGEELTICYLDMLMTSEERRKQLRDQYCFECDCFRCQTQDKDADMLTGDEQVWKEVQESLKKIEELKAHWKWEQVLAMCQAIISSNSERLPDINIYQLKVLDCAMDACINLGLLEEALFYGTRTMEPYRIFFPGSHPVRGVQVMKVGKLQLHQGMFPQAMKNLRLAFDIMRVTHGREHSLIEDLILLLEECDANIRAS
UniProt Q9NWM8: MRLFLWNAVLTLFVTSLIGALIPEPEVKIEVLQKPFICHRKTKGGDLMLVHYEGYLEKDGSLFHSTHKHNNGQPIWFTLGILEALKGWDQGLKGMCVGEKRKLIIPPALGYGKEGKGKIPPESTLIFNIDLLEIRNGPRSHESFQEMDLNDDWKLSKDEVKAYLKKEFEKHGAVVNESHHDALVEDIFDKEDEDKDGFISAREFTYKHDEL
UniProt Q9Y2Q5, whole entry: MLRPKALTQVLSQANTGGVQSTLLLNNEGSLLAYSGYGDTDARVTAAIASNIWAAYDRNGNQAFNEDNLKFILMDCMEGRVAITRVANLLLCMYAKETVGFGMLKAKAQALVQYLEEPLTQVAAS
UniProt O75896: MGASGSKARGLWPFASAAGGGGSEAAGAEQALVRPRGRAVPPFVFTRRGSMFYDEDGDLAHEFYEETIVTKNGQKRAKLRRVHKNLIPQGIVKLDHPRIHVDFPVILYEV
UniProt Q6ZXV5: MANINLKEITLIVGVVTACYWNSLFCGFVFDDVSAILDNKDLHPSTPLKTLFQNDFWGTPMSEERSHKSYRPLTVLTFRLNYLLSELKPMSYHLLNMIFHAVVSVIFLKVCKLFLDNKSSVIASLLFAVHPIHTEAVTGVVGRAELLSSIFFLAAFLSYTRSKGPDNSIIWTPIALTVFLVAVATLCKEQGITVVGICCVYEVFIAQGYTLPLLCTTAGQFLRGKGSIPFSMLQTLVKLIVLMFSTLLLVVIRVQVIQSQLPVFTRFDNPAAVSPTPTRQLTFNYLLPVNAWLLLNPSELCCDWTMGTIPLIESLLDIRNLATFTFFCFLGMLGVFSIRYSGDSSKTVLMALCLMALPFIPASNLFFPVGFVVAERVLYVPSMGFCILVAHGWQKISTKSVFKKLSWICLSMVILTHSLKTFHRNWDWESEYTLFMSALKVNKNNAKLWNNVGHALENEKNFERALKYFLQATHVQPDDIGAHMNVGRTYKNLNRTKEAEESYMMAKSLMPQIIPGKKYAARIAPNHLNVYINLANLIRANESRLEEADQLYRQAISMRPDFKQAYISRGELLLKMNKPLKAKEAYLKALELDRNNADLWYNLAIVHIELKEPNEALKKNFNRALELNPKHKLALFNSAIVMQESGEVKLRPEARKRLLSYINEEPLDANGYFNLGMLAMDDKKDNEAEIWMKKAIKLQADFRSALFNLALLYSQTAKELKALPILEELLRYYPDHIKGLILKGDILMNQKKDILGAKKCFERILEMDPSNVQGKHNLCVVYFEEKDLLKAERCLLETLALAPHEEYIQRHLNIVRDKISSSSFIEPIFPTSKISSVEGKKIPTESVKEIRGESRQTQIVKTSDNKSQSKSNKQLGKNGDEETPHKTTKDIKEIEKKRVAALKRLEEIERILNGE
UniProt Q9Y276: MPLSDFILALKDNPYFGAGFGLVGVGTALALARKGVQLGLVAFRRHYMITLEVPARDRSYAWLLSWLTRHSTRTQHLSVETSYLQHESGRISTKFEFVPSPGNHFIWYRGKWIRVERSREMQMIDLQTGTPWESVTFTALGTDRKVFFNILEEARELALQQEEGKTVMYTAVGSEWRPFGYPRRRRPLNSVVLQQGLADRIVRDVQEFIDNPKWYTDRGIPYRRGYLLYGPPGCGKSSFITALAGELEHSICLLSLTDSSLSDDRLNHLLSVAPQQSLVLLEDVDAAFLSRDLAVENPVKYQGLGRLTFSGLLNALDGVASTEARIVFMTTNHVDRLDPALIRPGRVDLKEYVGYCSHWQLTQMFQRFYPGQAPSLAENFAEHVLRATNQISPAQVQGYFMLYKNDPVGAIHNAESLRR
UniProt Q3KRA6: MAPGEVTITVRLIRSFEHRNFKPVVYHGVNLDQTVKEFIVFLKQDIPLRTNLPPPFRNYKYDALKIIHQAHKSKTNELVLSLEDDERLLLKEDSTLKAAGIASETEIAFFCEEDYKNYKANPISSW
UniProt Q8IWA4: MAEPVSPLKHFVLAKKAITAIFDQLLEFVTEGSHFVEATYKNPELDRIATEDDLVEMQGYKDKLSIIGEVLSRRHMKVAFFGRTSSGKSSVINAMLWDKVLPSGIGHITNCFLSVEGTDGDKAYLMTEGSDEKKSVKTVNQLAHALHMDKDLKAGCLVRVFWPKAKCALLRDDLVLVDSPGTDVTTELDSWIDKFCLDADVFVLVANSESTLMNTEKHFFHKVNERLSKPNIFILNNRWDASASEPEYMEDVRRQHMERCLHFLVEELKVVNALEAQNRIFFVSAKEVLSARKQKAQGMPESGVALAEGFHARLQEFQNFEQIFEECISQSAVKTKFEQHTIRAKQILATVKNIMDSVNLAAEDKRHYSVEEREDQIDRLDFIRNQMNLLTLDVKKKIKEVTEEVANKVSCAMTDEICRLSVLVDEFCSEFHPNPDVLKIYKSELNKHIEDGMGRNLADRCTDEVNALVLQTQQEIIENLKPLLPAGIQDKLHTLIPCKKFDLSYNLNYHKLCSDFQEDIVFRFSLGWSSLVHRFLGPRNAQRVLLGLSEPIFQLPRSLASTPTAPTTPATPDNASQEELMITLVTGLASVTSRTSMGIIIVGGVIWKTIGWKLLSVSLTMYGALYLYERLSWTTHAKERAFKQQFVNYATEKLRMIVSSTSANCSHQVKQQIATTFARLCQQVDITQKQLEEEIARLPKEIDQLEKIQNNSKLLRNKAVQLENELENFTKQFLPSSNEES
UniProt P61077: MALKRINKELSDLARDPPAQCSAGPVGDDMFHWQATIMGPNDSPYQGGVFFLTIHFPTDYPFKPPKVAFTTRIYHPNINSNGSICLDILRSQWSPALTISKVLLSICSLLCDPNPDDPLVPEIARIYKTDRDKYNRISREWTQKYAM
UniProt P57772: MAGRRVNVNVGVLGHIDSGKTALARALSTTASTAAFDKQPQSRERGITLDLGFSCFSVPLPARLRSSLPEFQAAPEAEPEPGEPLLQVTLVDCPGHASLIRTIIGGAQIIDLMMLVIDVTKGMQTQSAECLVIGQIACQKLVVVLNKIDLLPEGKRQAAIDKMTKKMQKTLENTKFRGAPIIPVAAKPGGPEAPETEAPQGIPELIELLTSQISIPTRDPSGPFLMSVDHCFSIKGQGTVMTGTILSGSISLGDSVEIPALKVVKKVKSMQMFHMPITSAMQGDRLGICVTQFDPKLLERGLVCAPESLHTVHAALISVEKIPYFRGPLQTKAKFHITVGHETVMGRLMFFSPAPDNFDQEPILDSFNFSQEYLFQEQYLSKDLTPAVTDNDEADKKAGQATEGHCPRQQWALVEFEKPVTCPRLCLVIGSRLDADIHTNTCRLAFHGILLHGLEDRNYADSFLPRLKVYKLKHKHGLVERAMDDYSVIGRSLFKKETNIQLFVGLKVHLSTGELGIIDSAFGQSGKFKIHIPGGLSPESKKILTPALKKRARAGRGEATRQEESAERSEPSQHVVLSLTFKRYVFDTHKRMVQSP
UniProt Q6WCQ1: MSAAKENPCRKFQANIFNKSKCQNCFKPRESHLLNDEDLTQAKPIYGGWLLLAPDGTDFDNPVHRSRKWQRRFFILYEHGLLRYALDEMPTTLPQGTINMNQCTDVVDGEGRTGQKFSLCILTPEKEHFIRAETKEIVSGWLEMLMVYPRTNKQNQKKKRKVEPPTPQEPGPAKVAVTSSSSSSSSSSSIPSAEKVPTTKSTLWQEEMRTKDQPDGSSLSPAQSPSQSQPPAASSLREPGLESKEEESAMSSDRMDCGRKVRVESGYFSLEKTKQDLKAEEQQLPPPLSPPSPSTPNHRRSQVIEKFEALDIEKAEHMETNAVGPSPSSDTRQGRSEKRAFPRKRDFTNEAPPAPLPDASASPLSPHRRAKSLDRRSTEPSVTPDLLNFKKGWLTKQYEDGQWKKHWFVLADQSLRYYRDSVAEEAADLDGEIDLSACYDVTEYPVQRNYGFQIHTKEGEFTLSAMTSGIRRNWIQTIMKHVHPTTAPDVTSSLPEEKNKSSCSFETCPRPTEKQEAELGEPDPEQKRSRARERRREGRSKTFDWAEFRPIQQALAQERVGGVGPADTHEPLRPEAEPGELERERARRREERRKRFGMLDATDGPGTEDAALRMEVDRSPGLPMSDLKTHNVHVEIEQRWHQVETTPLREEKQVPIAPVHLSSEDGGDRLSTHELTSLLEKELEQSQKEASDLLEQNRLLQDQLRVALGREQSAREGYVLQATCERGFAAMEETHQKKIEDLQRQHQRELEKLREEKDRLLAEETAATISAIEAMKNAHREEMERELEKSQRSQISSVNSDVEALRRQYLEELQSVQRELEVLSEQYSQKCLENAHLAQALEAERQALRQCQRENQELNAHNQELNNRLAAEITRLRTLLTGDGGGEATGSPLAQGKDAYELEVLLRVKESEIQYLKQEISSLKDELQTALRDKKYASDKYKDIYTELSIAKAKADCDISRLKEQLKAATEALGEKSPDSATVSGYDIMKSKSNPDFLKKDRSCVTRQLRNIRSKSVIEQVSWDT
UniProt Q9BV36: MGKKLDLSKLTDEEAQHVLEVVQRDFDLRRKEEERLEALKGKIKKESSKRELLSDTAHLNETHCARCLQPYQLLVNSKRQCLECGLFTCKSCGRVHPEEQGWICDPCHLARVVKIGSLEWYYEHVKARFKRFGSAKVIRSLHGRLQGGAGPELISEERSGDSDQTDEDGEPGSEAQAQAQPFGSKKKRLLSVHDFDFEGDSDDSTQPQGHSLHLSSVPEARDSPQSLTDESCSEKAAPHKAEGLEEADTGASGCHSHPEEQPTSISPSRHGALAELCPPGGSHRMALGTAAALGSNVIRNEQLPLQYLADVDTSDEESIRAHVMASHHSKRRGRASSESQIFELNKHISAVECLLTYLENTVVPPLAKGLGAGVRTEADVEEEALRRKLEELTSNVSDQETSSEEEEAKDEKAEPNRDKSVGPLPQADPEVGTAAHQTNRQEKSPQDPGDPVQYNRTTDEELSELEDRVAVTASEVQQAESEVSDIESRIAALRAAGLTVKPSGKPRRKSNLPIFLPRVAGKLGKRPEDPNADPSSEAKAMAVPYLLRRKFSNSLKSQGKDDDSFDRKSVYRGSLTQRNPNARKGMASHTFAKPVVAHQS
UniProt Q96GK7: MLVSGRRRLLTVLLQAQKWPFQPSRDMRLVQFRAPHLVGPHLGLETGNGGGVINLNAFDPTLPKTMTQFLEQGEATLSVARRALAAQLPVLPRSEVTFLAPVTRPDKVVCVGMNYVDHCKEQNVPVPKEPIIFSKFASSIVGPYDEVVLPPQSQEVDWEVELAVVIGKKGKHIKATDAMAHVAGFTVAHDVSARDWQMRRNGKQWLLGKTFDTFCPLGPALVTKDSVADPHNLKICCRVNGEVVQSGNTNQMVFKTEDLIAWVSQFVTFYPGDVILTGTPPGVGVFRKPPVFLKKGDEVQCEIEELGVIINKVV
UniProt Q9UI42: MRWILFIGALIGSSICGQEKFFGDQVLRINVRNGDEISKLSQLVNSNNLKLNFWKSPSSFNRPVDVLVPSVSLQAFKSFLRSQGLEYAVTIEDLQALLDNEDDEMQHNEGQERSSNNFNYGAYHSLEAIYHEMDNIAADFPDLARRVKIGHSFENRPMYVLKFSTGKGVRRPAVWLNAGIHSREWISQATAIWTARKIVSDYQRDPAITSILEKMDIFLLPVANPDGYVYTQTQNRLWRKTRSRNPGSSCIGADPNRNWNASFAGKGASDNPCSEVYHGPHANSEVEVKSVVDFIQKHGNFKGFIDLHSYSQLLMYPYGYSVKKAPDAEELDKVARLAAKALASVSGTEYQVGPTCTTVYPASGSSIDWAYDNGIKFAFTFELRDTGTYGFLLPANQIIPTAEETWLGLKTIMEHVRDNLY
UniProt P14406, whole entry: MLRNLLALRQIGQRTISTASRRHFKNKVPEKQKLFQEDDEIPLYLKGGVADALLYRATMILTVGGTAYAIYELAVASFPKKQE
UniProt P61970, whole entry: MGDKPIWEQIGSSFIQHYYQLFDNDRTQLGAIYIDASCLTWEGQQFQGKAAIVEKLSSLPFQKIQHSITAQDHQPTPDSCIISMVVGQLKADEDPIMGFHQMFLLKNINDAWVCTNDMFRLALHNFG

Compound: [O-][N+](C(C1=C(C(O)=C2)NC(C(C=C3)=CC=C3Cl)C4C1C=CC4)=C2Cl)=O
Assay: melting temperature shift (compound 7 minus DMSO); higher = compound stabilises the protein
Details: 10 µM
Procedure: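 Thermal proteome profiling (TMT mass spectrometry) in intact DAOY medulloblastoma cells or DAOY lysates treated with 10 µM compound 7 or DMSO, heated at 10 temperatures from 40.5 to 73.8 °C for 3 min. Melting curves were fitted with the Bioconductor TPP package, and the melting point difference between compound and vehicle is reported per protein (single curve per condition).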

[1] = system: DAOY cell lysate, treatment time: 20 min, 4 °C
[2] = system: intact DAOY cells, treatment time: 90 min, 37 °C

| Target | melting temperature shift [1] | melting temperature shift [2] |
| --- | --- | --- |
| COX15 (UniProt Q7KZN9) | 3.09 °C | 0.123 °C |
| ABCC1 (UniProt P33527) | 0.342 °C | -1.26 °C |
| UniProt P48380 |  | -0.893 °C |
| UniProt Q9BRJ7 | 0.301 °C | 1.53 °C |
| CARS2 (UniProt Q9HA77) | 0.637 °C | -1.45 °C |
| SMYD3 (UniProt Q9H7B4) | -0.251 °C | -1.57 °C |
| FKBP14 (UniProt Q9NWM8) | 2.11 °C | 0.867 °C |
| CENPV (UniProt Q7Z7K6) | 1.02 °C | 0.072 °C |
| SLC25A4 (UniProt P12235) | 2.76 °C | 0.155 °C |
| UniProt Q8WUY9 | -0.428 °C |  |
| ECH1 (UniProt Q13011) | 0.965 °C | -0.353 °C |
| ITGB5 (UniProt P18084) | 0.426 °C | -1.21 °C |
| UniProt O60613 | 0.44 °C | 0.332 °C |
| UniProt A6NKL6 | 2.01 °C |  |
| LAMTOR2 (UniProt Q9Y2Q5) | 4.42 °C | 2.49 °C |
| ALYREF (UniProt Q86V81) | 1.23 °C | -1.15 °C |
| UniProt Q9BUB4 | -2.47 °C |  |
| UniProt Q9NZI7 | 0.649 °C |  |
| AAGAB (UniProt Q6PD74) | -0.239 °C | -0.677 °C |
| UniProt Q96AB3 | 0.23 °C | -1.46 °C |
| UniProt P15336 |  | 0.628 °C |
| UniProt P46821 | -0.748 °C | 0.237 °C |

| Target | melting temperature shift [1] | melting temperature shift [2] |
| --- | --- | --- |
| PREP (UniProt P48147) | -0.702 °C | 0.48 °C |
| PHACTR4 (UniProt Q8IZ21) | 1.42 °C | 1.51 °C |
| HRSP12 (UniProt P52758) | -0.688 °C | 0.704 °C |
| OCIAD1 (UniProt Q9NX40) | 2.17 °C |  |
| MCCC2 (UniProt Q9HCC0) | 1.37 °C | 1.23 °C |
| SEC16A (UniProt O15027) | 0.0409 °C | 0.876 °C |
| UniProt O75896 | 0.991 °C |  |
| RSBN1L (UniProt Q6PCB5) | -1.03 °C | -1.41 °C |
| TMED5 (UniProt Q9Y3A6) | -0.194 °C | -0.856 °C |
| ANAPC1 (UniProt Q9H1A4) | -0.419 °C | 0.521 °C |
| TMTC3 (UniProt Q6ZXV5) | 0.168 °C | -0.436 °C |
| UniProt P17405 |  | -2.03 °C |
| IGF2R (UniProt P11717) | 1.35 °C | 0.337 °C |
| C9ORF78 (UniProt Q9NZ63) | 1.14 °C |  |
| UniProt O14556 |  | -0.26 °C |
| PFDN5 (UniProt Q99471) | -1.42 °C | -0.207 °C |
| BCS1L (UniProt Q9Y276) | 0.912 °C | -0.567 °C |
| UniProt Q3KRA6 | -0.762 °C | 0.797 °C |
| CBL (UniProt P22681) | -1.21 °C | 0.126 °C |
| NDUFB9 (UniProt Q9Y6M9) | 0.917 °C | 0.39 °C |
| MFN1 (UniProt Q8IWA4) | 1.21 °C | 0.504 °C |
| EIF2S2 (UniProt P20042) | -0.0131 °C | -0.637 °C |

| Target | melting temperature shift [1] | melting temperature shift [2] |
| --- | --- | --- |
| SMN1 (UniProt Q16637) | 0.261 °C |  |
| TSEN34 (UniProt Q9BSV6) | -0.479 °C | -0.209 °C |
| UniProt O14933 | -1.87 °C | -1.19 °C |
| UniProt P61077 |  | 1.06 °C |
| BUB3 (UniProt O43684) | -0.161 °C | 0.19 °C |
| ACTL6A (UniProt O96019) | -0.2 °C | 0.927 °C |
| KCTD5 (UniProt Q9NXV2) | 1.68 °C |  |
| SRSF11 (UniProt Q05519) | 0.153 °C | -0.493 °C |
| EEFSEC (UniProt P57772) | -0.667 °C | -0.439 °C |
| MPRIP (UniProt Q6WCQ1) | -0.176 °C | 0.393 °C |
| ME2 (UniProt P23368) | 0.775 °C | 2.7 °C |
| SKP1 (UniProt P63208) | -0.63 °C |  |
| GIT2 (UniProt Q14161) | -1.31 °C | -0.374 °C |
| UniProt Q9BV36 | 0.549 °C |  |
| UniProt Q8N0W7 | 1.86 °C |  |
| MAP4K5 (UniProt Q9Y4K4) | -0.0915 °C | -0.0104 °C |
| NUP58 (UniProt Q9BVL2) | -0.022 °C | 1.57 °C |
| STAT5A (UniProt P42229) | -0.55 °C | -0.512 °C |
| MRPL9 (UniProt Q9BYD2) | -0.743 °C | -0.891 °C |
| APOB (UniProt P04114) | -1.23 °C | 1.99 °C |
| FAT1 (UniProt Q14517) |  | 1.09 °C |
| CCDC93 (UniProt Q567U6) | -0.684 °C | -0.207 °C |

| Target | melting temperature shift [1] | melting temperature shift [2] |
| --- | --- | --- |
| FAHD2A (UniProt Q96GK7) | -1.56 °C | -0.0772 °C |
| DDX23 (UniProt Q9BUQ8) | -0.0754 °C | 0.949 °C |
| CBX4 (UniProt O00257) | -0.429 °C |  |
| DDX20 (UniProt Q9UHI6) | -0.448 °C | -0.672 °C |
| UniProt Q96A29 | -0.198 °C |  |
| NCAPD3 (UniProt P42695) | -1.65 °C | 1.6 °C |
| CPA4 (UniProt Q9UI42) | -0.29 °C | 7.12 °C |
| CFAP20 (UniProt Q9Y6A4) | -0.317 °C | 0.738 °C |
| PSMD12 (UniProt O00232) | -0.495 °C | -1.04 °C |
| UniProt P14406 | 1.77 °C | -0.0671 °C |
| RAD50 (UniProt Q92878) | -0.601 °C | -1.19 °C |
| UniProt Q9NUD5 | 1.04 °C |  |
| RPUSD2 (UniProt Q8IZ73) | -0.315 °C | 1.67 °C |
| NBN (UniProt O60934) | -1.73 °C | -0.181 °C |
| UniProt Q96F85 | -1.27 °C | 0.0807 °C |
| BPNT1 (UniProt O95861) | -0.171 °C | -0.864 °C |
| KIDINS220 (UniProt Q9ULH0) | 0.7 °C | 0.548 °C |
| CANX (UniProt P27824) | 2.12 °C | 0.269 °C |
| NUTF2 (UniProt P61970) | 1.97 °C |  |
| SIRT2 (UniProt Q8IXJ6) |  | -0.8 °C |
| CTPS1 (UniProt P17812) | -0.492 °C | -0.2 °C |
| RNASEH2A (UniProt O75792) | -0.628 °C | 0.937 °C |

Given with bars between the fields: entries from further up
Target | melting temperature shift [1] | melting temperature shift [2]
ITGB5 (UniProt P18084) | 0.426 °C | -1.21 °C
UniProt O60613 | 0.44 °C | 0.332 °C
